# Results from one PubChem assay

The results are deposited in PubChem (AID912; NCATS, 2007).

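A cell-based FRET test of anthrax lethal toxin entry, tracked through the 460 nm emission signal; the cell line is not named here. Each compound was tested as a concentration series from about 0.0005 to 40 µM. The number is the fitted AC50 of the 460 nm signal alone; lower values mean a more potent effect. A falling signal goes with compounds filed as inhibitors or cytotoxic, a rising one with activators or fluorescent compounds (inferred from the filed classes).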

Values are in µM. Common to all entries: measured here: 460 nm channel. This is a side read-out of the assay, for part of the compounds, not drawn at random. A potency from a partial, single-point or poor curve is only a rough figure. The first word of each remark tells which way the curve ran; it can be opposite to the aim of the assay.

Compound | AC50 (µM) | curve
COc1ccc(OC)c(-n2c(N)c(C(=O)NCC3CCCO3)c3nc4ccccc4nc32)c1 (centres unmarked) | 12.59 | rising, partial curve
O=C1C(=O)N(Cc2ccc(Cl)c(Cl)c2)c2ccccc21 | 19.95 | falling, partial curve, poor fit
C=CCn1c(=N)c(C(=O)NCCCOC)cc2c(=O)n3cccc(C)c3nc21 | 10 | rising, partial curve
O=S(=O)(Nc1cccc2cccnc12)c1ccc(S(=O)(=O)N2CCCC2)cc1 | 12.59 | falling, single point
Oc1ccc(-c2nc(-c3ccc(F)cc3)c(-c3ccncc3)[nH]2)cc1 | 31.62 | falling, single point
Cc1ccc2cc(CN(Cc3ccco3)C(=O)C3CCCCC3)c(=O)[nH]c2c1C | 5.012 | rising, single point
Oc1ccc(O)cc1 | 31.62 | falling, single point
COc1cccc2cc(-c3nnc(SCC(=O)Nc4nc(C)cs4)n3C)oc12 | 1.259 | rising, full curve, poor fit
COc1cc(NC(=O)c2ccccc2)c(OC)cc1NC(C)=O | 25.12 | rising, single point
COC(=O)[C@@]1(Cc2ccc(F)cc2)[C@H]2c3cc(C(=O)N4CCCC4)n(Cc4ccc(OC(F)(F)F)cc4)c3C[C@H]2CN1C(=O)c1ccccc1 | 3.162 | rising, full curve, poor fit
CN(C)c1ncc2nc(-c3ccccc3)c(=O)n(C[C@H]3CCCO3)c2n1 | 3.162 | rising, full curve
CSc1cccc(NC(=O)OC2CCCCCCCCCCC2)c1 | 1.585 | falling, partial curve
COCCNCC(=O)C12CC3CC(CC(C3)C1)C2 | 12.59 | rising, single point
CC1CCCCC1n1c(=S)[nH]c2ccccc2c1=O (centres unmarked) | 3.981 | falling, full curve, poor fit
O=C(NCc1ccco1)c1cc2sccc2n1Cc1ccc(F)cc1 | 31.62 | falling, single point
COc1ccc(S(=O)(=O)N2CCN(c3c(C)cccc3C)CC2)cc1OC | 19.95 | falling, partial curve
CCOC(=O)c1c(CN2CCOCC2)n(C)c2cc(Br)c(O)c(CN(C)C)c12 | 0.01995 | falling, full curve, poor fit
CCOc1ccccc1N(CC(=O)N1CCOCC1)S(=O)(=O)c1ccc(SC)cc1 | 0.003981 | falling, full curve, poor fit
Cc1cc(S(=O)(=O)Nc2cccnc2)c(C)s1 | 0.5012 | falling, partial curve
CCOc1ccc(OCC)c(NC(=O)CN2CCN(c3cccc(C)c3)CC2)c1 | 0.3162 | falling, full curve, poor fit
Brc1ccc2ncnc(Nc3ccc(N4CCOCC4)cc3)c2c1 | 15.85 | falling, partial curve
CCOC(=O)C1CCN(S(=O)(=O)c2cn(C)c(=O)n(C)c2=O)CC1 | 31.62 | falling, single point
COc1cc(C2CC(=O)c3c([nH]c(C(=O)OCCOC(C)C)c3C)C2)cc(OC)c1OC (centres unmarked) | 15.85 | falling, single point
COc1ccc(Cn2c3nc4ccccc4nc3c3c(=O)n(Cc4ccco4)c(C)nc32)cc1 | 3.162 | falling, partial curve
CSc1nc(C)cc(Oc2ccc(=O)n(C)n2)n1 | 31.62 | falling, single point
Cc1ccccc1NS(=O)(=O)c1cccc(-c2nnc(-c3ccccc3)o2)c1 | 12.59 | falling, single point
CN(C)c1ccc2c(c1)OC(N)=C(C#N)C2c1cccc(F)c1 (centres unmarked) | 10 | falling, partial curve
CCc1ccc(OCc2nc(-c3ccccn3)no2)c(Br)c1 | 5.012 | falling, partial curve, poor fit
CCC(C)Oc1cccc(C(=O)Nc2ccccc2N2CCOCC2)c1 (centres unmarked) | 31.62 | falling, single point
Cc1cc(NC(=O)COC(=O)C(Cc2ccccc2)NC(=O)c2ccco2)no1 (centres unmarked) | 31.62 | rising, single point
Cn1c(=O)c(CCc2ccccc2)nc2cnc(OCc3ccccc3)nc21 | 1 | falling, full curve, poor fit
COc1ccc(-n2c(=O)c(-c3cc(F)cc(F)c3)nc3cnc(N(C)C)nc32)cc1 | 2.512 | rising, full curve
COCCOc1nc2ccccc2nc1C | 0.01585 | falling, full curve, poor fit
Brc1ccc(Oc2cc(Br)c(Br)cc2Br)c(Br)c1 | 5.012 | falling, full curve
CCOC(=O)N1CCC(N2Cc3cccc(C(=O)NCC4CCN(CC(C)C)C4)c3C2=O)CC1 (centres unmarked) | 1.259 | rising, full curve
COc1cccc(Cn2c(=O)c(-c3cccs3)nc3cncnc32)c1 | 10 | rising, partial curve
COc1ccc(C[C@@H]2NC[C@H](O)[C@H]2OC(C)=O)cc1 | 0.1259 | falling, full curve

For reference, 3 entries once more:

COc1cc(C2CC(=O)c3c([nH]c(C(=O)OCCOC(C)C)c3C)C2)cc(OC)c1OC (centres unmarked) gave AC50 15.85 µM (falling, single point).
Cc1cc(NC(=O)COC(=O)C(Cc2ccccc2)NC(=O)c2ccco2)no1 (centres unmarked) gave AC50 31.62 µM (rising, single point).
COc1ccc(-n2c(=O)c(-c3cc(F)cc(F)c3)nc3cnc(N(C)C)nc32)cc1 gave AC50 2.512 µM (rising, full curve).